Measured data: PubChem BioAssay AID1259405 (NCATS, 2018)

Assay: 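Knock-downs that lift recombinant protein yield in hamster ovary cells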 (primary screen)
System: Chinese hamster CHO-K1 ovary cells with stable secreted eGFP expression
Reagents: single siRNA against mouse genes, 0.8 pmol siRNA per well (2 µl of 400 nM stock)
Timing: 3 days
Measured: 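Percent of the per-plate non-targeting control median for intracellular GFP per well by laser scanning cytometry and for cell viability by ATP luminescence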
Reading the numbers: GFP, % of control: higher = more GFP per well, higher productivity; viability (ATP), % of control: higher = more viable cells (more ATP)
Hit rule: 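Called active when intracellular GFP, relative to negative control, is at or above 120%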
In all, the deposit lists about 50,000 reagents; below is an unselected part. Of all reagents, about 4,000 (8%) got an active call. 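Mouse siRNA library applied to hamster cells; one well for each siRNA.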 Reagent sequences are not shown.

For Scyl2 (SCY1-like 2 (S. cerevisiae)) [SID363581929], what does the deposit list?
GFP, % of control: 67; viability (ATP), % of control: 101; call: inactive

For Scyl2 (SCY1-like 2 (S. cerevisiae)) [SID363589423], what does the deposit list?
GFP, % of control: 115; viability (ATP), % of control: 99.8; call: inactive

With Adm (adrenomedullin) [SID363542678], what was measured?
GFP, % of control: 43.9; viability (ATP), % of control: 41.3; call: inactive

With Adm (adrenomedullin) [SID363546195], what was measured?
GFP, % of control: 77.7; viability (ATP), % of control: 71.1; call: inactive

With Adm (adrenomedullin) [SID363547951], what was measured?
GFP, % of control: 54.4; viability (ATP), % of control: 74; call: inactive

For Fam114a1 (family with sequence similarity 114, member A1) [SID363552167], what was measured?
GFP, % of control: 104; viability (ATP), % of control: 77.6; call: inactive

What is on record for Fam114a1 (family with sequence similarity 114, member A1) [SID363585303]?
GFP, % of control: 77.6; viability (ATP), % of control: 80.4; call: inactive

With Fam114a1 (family with sequence similarity 114, member A1) [SID363585654], how do the results read?
GFP, % of control: 103; viability (ATP), % of control: 92.9; call: inactive

What did the screen give for Or7g35 (olfactory receptor family 7 subfamily G member 35) [SID363554578]?
GFP, % of control: 113; viability (ATP), % of control: 72.5; call: inactive

With Or7g35 (olfactory receptor family 7 subfamily G member 35) [SID363568025], what was measured?
GFP, % of control: 74.2; viability (ATP), % of control: 76.4; call: inactive

With Or7g35 (olfactory receptor family 7 subfamily G member 35) [SID363586084], what does the deposit list?
GFP, % of control: 85.6; viability (ATP), % of control: 125; call: inactive

For Otol1 (otolin 1) [SID363539905], what was measured?
GFP, % of control: 51.7; viability (ATP), % of control: 76.4; call: inactive

What is on record for Otol1 (otolin 1) [SID363561206]?
GFP, % of control: 36.5; viability (ATP), % of control: 47.4; call: inactive

For Otol1 (otolin 1) [SID363564242], what does the deposit list?
GFP, % of control: 70.1; viability (ATP), % of control: 74.5; call: inactive

What did the screen give for Sun2 (Sad1 and UNC84 domain containing 2) [SID363541050]?
GFP, % of control: 32.1; viability (ATP), % of control: 47.8; call: inactive

With Sun2 (Sad1 and UNC84 domain containing 2) [SID363555677], what was measured?
GFP, % of control: 51.7; viability (ATP), % of control: 60.3; call: inactive

Which result is listed for Sun2 (Sad1 and UNC84 domain containing 2) [SID363565966]?
GFP, % of control: 70.6; viability (ATP), % of control: 71.9; call: inactive

Which result is listed for Plac9 (placenta specific 9) [SID363562061]?
GFP, % of control: 53.1; viability (ATP), % of control: 69.8; call: inactive

For Plac9 (placenta specific 9) [SID363567199], what was measured?
GFP, % of control: 120; viability (ATP), % of control: 62.9; call: active

What did the screen give for Plac9 (placenta specific 9) [SID363584556]?
GFP, % of control: 111; viability (ATP), % of control: 82.7; call: inactive

How did the screen score Donson (downstream neighbor of SON) [SID363581687]?
GFP, % of control: 49; viability (ATP), % of control: 57.4; call: inactive

For Donson (downstream neighbor of SON) [SID363589181], what does the deposit list?
GFP, % of control: 117; viability (ATP), % of control: 82.2; call: inactive

Already shown: entries from further up.
Or7g35 (olfactory receptor family 7 subfamily G member 35) [SID363568025] | GFP, % of control = 74.2; viability (ATP), % of control = 76.4; call = inactive
Or7g35 (olfactory receptor family 7 subfamily G member 35) [SID363586084] | GFP, % of control = 85.6; viability (ATP), % of control = 125; call = inactive
Otol1 (otolin 1) [SID363539905] | GFP, % of control = 51.7; viability (ATP), % of control = 76.4; call = inactive
Otol1 (otolin 1) [SID363561206] | GFP, % of control = 36.5; viability (ATP), % of control = 47.4; call = inactive
Otol1 (otolin 1) [SID363564242] | GFP, % of control = 70.1; viability (ATP), % of control = 74.5; call = inactive
Sun2 (Sad1 and UNC84 domain containing 2) [SID363541050] | GFP, % of control = 32.1; viability (ATP), % of control = 47.8; call = inactive
Sun2 (Sad1 and UNC84 domain containing 2) [SID363555677] | GFP, % of control = 51.7; viability (ATP), % of control = 60.3; call = inactive

More records follow:
For Tgs1 (trimethylguanosine synthase 1) [SID363570568], what was measured?
GFP, % of control: 58.5; viability (ATP), % of control: 70.4; call: inactive

For Tgs1 (trimethylguanosine synthase 1) [SID363579368], what was measured?
GFP, % of control: 154; viability (ATP), % of control: 161; call: active

With Tgs1 (trimethylguanosine synthase 1) [SID363583240], what was measured?
GFP, % of control: 89.2; viability (ATP), % of control: 75.9; call: inactive

With Hba-a1 (hemoglobin alpha, adult chain 1) [SID363545440], how do the results read?
GFP, % of control: 53; viability (ATP), % of control: 41.4; call: inactive

For Hba-a1 (hemoglobin alpha, adult chain 1) [SID363548953], how do the results read?
GFP, % of control: 78; viability (ATP), % of control: 64.8; call: inactive

With Hba-a1 (hemoglobin alpha, adult chain 1) [SID363562759], how do the results read?
GFP, % of control: 109; viability (ATP), % of control: 81.4; call: inactive

What is on record for Arv1 (ARV1 homolog, fatty acid homeostasis modulator) [SID363540762]?
GFP, % of control: 82.5; viability (ATP), % of control: 130; call: inactive

For Arv1 (ARV1 homolog, fatty acid homeostasis modulator) [SID363543213], what was measured?
GFP, % of control: 103; viability (ATP), % of control: 96.2; call: inactive

What did the screen give for Arv1 (ARV1 homolog, fatty acid homeostasis modulator) [SID363552706]?
GFP, % of control: 89.7; viability (ATP), % of control: 66.2; call: inactive

What did the screen give for Abca3 (ATP-binding cassette, sub-family A member 3) [SID363574892]?
GFP, % of control: 76.1; viability (ATP), % of control: 96; call: inactive

With Abca3 (ATP-binding cassette, sub-family A member 3) [SID363575948], how do the results read?
GFP, % of control: 59.1; viability (ATP), % of control: 82.9; call: inactive

What did the screen give for Abca3 (ATP-binding cassette, sub-family A member 3) [SID363580524]?
GFP, % of control: 63.3; viability (ATP), % of control: 54.2; call: inactive

With Tbcc (tubulin-specific chaperone C) [SID363556296], how do the results read?
GFP, % of control: 70.4; viability (ATP), % of control: 63.2; call: inactive

How did the screen score Tbcc (tubulin-specific chaperone C) [SID363586746]?
GFP, % of control: 58.1; viability (ATP), % of control: 110; call: inactive

With Tbcc (tubulin-specific chaperone C) [SID363588854], how do the results read?
GFP, % of control: 104; viability (ATP), % of control: 110; call: inactive

With Or8h10 (olfactory receptor family 8 subfamily H member 10) [SID363544455], what does the deposit list?
GFP, % of control: 67.3; viability (ATP), % of control: 56; call: inactive

What is on record for Or8h10 (olfactory receptor family 8 subfamily H member 10) [SID363550783]?
GFP, % of control: 89.1; viability (ATP), % of control: 76.2; call: inactive

With Or8h10 (olfactory receptor family 8 subfamily H member 10) [SID363557332], what does the deposit list?
GFP, % of control: 37.5; viability (ATP), % of control: 56; call: inactive
